Data as given in PubChem BioAssay AID1671195 (Yale University, 2021)
Shown is one part, drawn at random, of about 22,000 reagents tested. In the full data, about 1,510 (6.9%) are marked active. 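Active includes knockdowns raising or lowering LDL uptake; positive z-scores mean more uptake, negative mean less.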

Purpose: 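Genes whose knockdown alters LDL uptake in liver cancer cells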 (primary screen)
System: human Huh7 hepatoma cells
Reagent: siRNA pool against human genes, 18 nM
Timing: about 2 to 2.5 days of knockdown, then 8 h LDL uptake
Conditions: DiI-labelled LDL at 30 µg/ml for 8 h, in lipoprotein-deficient serum medium
Read-out: 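Fluorescent LDL signal imaged in cells, scaled to the plate median, robust z-score for each replicate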
Reading the numbers: robust z-score: higher = more LDL uptake after knockdown
Hit rule: 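Active when two or more replicates show a robust z-score above 2 or below -2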

gene symbol | PubChem SID | robust z-score, replicate 1 | robust z-score, replicate 2 | robust z-score, replicate 3 | activity call
CBR4 (carbonyl reductase 4) | SID442884808 | 2.29 | 1.64 | 1.68 | inactive
ZNF213 (zinc finger protein 213) | SID442896639 | -0.637 | -0.0885 | -0.161 | inactive
POGLUT1 (protein O-glucosyltransferase 1) | SID442886084 | 0.895 | 2.19 | 0.735 | inactive
LOC389318 (retired record) | SID442891542 | 0.0951 | 0.149 | 0.579 | inactive
ZNF140 (zinc finger protein 140) | SID442900970 | -1.01 | -0.717 | -0.776 | inactive
ZSCAN29 (zinc finger and SCAN domain containing 29) | SID442898868 | -0.702 | -0.591 | -0.351 | inactive
GMFG (glia maturation factor gamma) | SID442886974 | 0.264 | 1.83 | 0.96 | inactive
SEM1 (SEM1 26S proteasome subunit) | SID442883838 | 2.66 | 0.998 | 3.08 | active
SEM1 (SEM1 26S proteasome subunit) | SID442899078 | -0.283 | -0.416 | -1.02 | inactive
QPRT (quinolinate phosphoribosyltransferase) | SID442898397 | -0.456 | -0.306 | -0.719 | inactive
ETV1 (ETS variant transcription factor 1) | SID442895696 | -0.272 | -0.243 | -0.0747 | inactive
TMEM273 (transmembrane protein 273) | SID442900650 | -1.02 | -0.748 | -0.598 | inactive
AK1 (adenylate kinase 1) | SID442897437 | -0.378 | -0.384 | -0.395 | inactive
HIVEP2 (HIVEP zinc finger 2) | SID442888683 | 1.8 | -0.673 | 0.904 | inactive
PAPOLA (poly(A) polymerase alpha) | SID442884164 | 1.99 | 1.32 | 2.23 | active
STK35 (serine/threonine kinase 35) | SID442888736 | 1.56 | -0.367 | 0.821 | inactive
NDUFB1 (NADH:ubiquinone oxidoreductase subunit B1) | SID442890006 | 0.57 | 0.625 | 0.233 | inactive
G6PC2 (glucose-6-phosphatase catalytic subunit 2) | SID442889934 | 0.921 | 0.526 | 0.0129 | inactive

Active calls, of those listed so far:
gene symbol | PubChem SID | robust z-score, replicate 1 | robust z-score, replicate 2 | robust z-score, replicate 3 | activity call
SEM1 (SEM1 26S proteasome subunit) | SID442883838 | 2.66 | 0.998 | 3.08 | active
PAPOLA (poly(A) polymerase alpha) | SID442884164 | 1.99 | 1.32 | 2.23 | active

Additional reagents follow.
gene symbol | PubChem SID | robust z-score, replicate 1 | robust z-score, replicate 2 | robust z-score, replicate 3 | activity call
NFKBIZ (NFKB inhibitor zeta) | SID442901083 | -0.846 | -0.94 | -0.761 | inactive
PRODH (proline dehydrogenase 1) | SID442891842 | -0.431 | 1.05 | 0.0958 | inactive
DKK1 (dickkopf Wnt signaling pathway inhibitor 1) | SID442885369 | 0.993 | 2.64 | 0.98 | inactive
TTLL7 (tubulin tyrosine ligase like 7) | SID442892879 | 0.335 | -0.338 | 0.347 | inactive
MYO1F (myosin IF) | SID442898025 | -0.578 | -0.642 | -0.141 | inactive
OR56A3 (olfactory receptor family 56 subfamily A member 3) | SID442888625 | 0.395 | 1.13 | 0.537 | inactive
LOC441148 (retired record) | SID442896216 | -0.125 | -0.435 | -0.188 | inactive
ARL6IP1 (ARL6 interacting reticulophagy regulator 1) | SID442883507 | 4.58 | 1.96 | 1.74 | active
LOC392084 (retired record) | SID442896844 | 0.136 | -0.586 | -0.508 | inactive
SPEM2 (SPEM family member 2) | SID442900032 | -1.22 | -0.917 | 0.0284 | inactive
DCAF4L2 (DDB1 and CUL4 associated factor 4 like 2) | SID442887439 | -0.0371 | 2.95 | -0.172 | inactive
POLR2I (RNA polymerase II subunit I) | SID442902994 | -0.866 | -1.43 | -1.28 | inactive
GRID1 (glutamate ionotropic receptor delta type subunit 1) | SID442895773 | -0.326 | 0.215 | -0.503 | inactive
LOC107987397 | SID442893742 | -0.0392 | 0.0853 | -0.000644 | inactive
ZNF512 (zinc finger protein 512) | SID442902933 | -1.4 | -1.46 | -0.678 | inactive
SLC7A13 | SID442898652 | -0.671 | -0.757 | -0.141 | inactive
MAP3K21 (mitogen-activated protein kinase kinase kinase 21) | SID442883178 | 3.93 | 4.98 | 3.63 | active
CCDC110 (coiled-coil domain containing 110) | SID442902329 | -1.06 | -1.01 | -1.08 | inactive
LOC389689 (retired record) | SID442902985 | -1.16 | -1.38 | -1.03 | inactive
HOXD11 (homeobox D11) | SID442886068 | 1.03 | 1.39 | 1.41 | inactive
NUGGC (nuclear GTPase, germinal center associated) | SID442899976 | -0.81 | -0.896 | -0.375 | inactive
INTS12 (integrator complex subunit 12) | SID442898299 | -0.699 | -0.399 | -0.353 | inactive
PTPRA (protein tyrosine phosphatase receptor type A) | SID442890443 | 0.508 | 0.312 | 0.428 | inactive
TAF7L (TATA-box binding protein associated factor 7 like) | SID442892046 | 0.378 | 0.32 | -0.0513 | inactive
SHPK (sedoheptulokinase) | SID442887927 | 0.867 | -0.000446 | 1.58 | inactive
MSS51 (MSS51 mitochondrial translational activator) | SID442886784 | 1.26 | 1.15 | 0.776 | inactive
DR1 (down-regulator of transcription 1) | SID442888642 | 1.61 | -0.0537 | 0.496 | inactive
MTLN (mitoregulin) | SID442891775 | 0.575 | -0.0756 | 0.24 | inactive
